Measured values: US20160046678A1 (ZYNGENIA, published 2016)
These are yes or no findings as the source states them, for the method shown. Some entries that bind do so weakly or less than the wild type.

Chains of the proteins cited; added tags and fusions are not shown. Lines headed by an entry give the natural chain unless they say otherwise; changes in a name come on top. A line that says so, or that is headed by a name, gives the form on record, which may keep a tag or linker. Residues count along the entry.
VEGF (P15692, form named): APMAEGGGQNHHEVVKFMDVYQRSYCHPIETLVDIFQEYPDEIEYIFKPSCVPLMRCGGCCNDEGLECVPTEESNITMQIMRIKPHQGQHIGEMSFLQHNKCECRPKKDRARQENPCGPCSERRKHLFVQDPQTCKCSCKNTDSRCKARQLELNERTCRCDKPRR
UniProt Q16552, residues 24-155: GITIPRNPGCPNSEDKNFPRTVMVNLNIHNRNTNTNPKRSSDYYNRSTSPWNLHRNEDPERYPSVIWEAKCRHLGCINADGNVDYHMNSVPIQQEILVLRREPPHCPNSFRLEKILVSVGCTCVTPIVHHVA

What follows are binders tested against VEGF (UniProt P15692) (assay: MRD identification, Example 48).
With ECRWVMPWWFCE [VGF8] the binding was “binds”.
With ACWKAMPWWFCT [VGF9] the binding was “binds”.
With FCMVQVPWWLCK [VGF10] the binding was “binds”.
FYQWFEEQLM [VGF11] was tested, and the binding was “binds”.
In the case of MCWLVPGPMICH [VGF13], the binding is reported as “binds”.
For FCMYKPLMFLCP [VGF14], the binding was “binds”.
For HCWWLYTWDPCI [VGF15], the binding was “binds”.
HCYVYVPWWLCP [VGF16] was tested, and the binding was “binds”.
With MCWTPVPWWLCL [VGF17] the binding was “binds”.
With TCWKPTPWWLCD [VGF18] the binding was “binds”.
SCWFKIPWWLCP [VGF19] was tested, and the binding was “binds”.
YCQPMWWNMACW [VGF20] was tested, and the binding was “binds”.
For YCFWIPPEWYCV [VGF21], the binding was “binds”.
With GCWEWRPHWLCV [VGF23] the binding was “binds”.
ECTWTMPWWFC [VGF24] was tested, and the binding was “binds”.
TCWKPAPWWLCA [VGF25] was tested, and the binding was “binds”.
With TCWKPTPWWLCA [VGF27] the binding was “binds”.
With KCNFNPWKAACG [VGF29] the binding was “binds”.
In the case of TCWKPAPWWLCD [VGF30], the binding is reported as “binds”.
With TSWKAAAWGLCA [VGF31] the binding was “binds”.
With ACWKATPWWLCD [VGF32] the binding was “binds”.
TCWKATPWWLCA [VGF34] was tested, and the binding was “binds”.
With ACWKAAPWWLCD [VGF35] the binding was “binds”.
For TCWKAAPWWLCD [VGF36], the binding was “binds”.
With ACWKPAPWWLCD [VGF37] the binding was “binds”.
For TCWKATPWWLCD [VGF38], the binding was “binds”.
In the case of TCWKAAPWWLCA [VGF39], the binding is reported as “binds”.
In the case of ACWKAAPWWLCA [VGF40], the binding is reported as “binds”.
WCAGFPPNYPCY [VGF47] was tested, and the binding was “binds”.
WCNGFPPNYPCS [VGF48] was tested, and the binding was “binds”.
With WCNGFPPNYPCY [VGF49] the binding was “binds”.
For WCNGFPPNYPCA [VGF53], the binding was “binds”.
For GCVKEVPWWLCI [VGF57], the binding was “binds”.
In the case of GCVKQVPWWLCV [VGF59], the binding is reported as “binds”.
GCVTQVPWWLCI [VGF60] was tested, and the binding was “binds”.
In the case of ACVKEVPWWLCI [VGF62], the binding is reported as “binds”.
In the case of GCVKQVPWWLCI [VGF63], the binding is reported as “binds”.
For ACVAEVPWWLCI [VGF65], the binding was “binds”.
GCVKAAPWWLCV [VGF67] was tested, and the binding was “binds”.
For GCVKEVPWWLCV [VGF69], the binding was “binds”.
For GCVKPAPWWLCI [VGF70], the binding was “binds”.
For GCVTEVPWWLCI [VGF71], the binding was “binds”.
GCVAQVPWWLCI [VGF72] was tested, and the binding was “binds”.
With ACVKEAPWWLCI [VGF76] the binding was “binds”.
For GCVAEVPWWLCI [VGF82], the binding was “binds”.
With ACVKQVPWWLCI [VGF83] the binding was “binds”.
GCVKPAPWWLCV [VGF85] was tested, and the binding was “binds”.
With GCVAEVPWWLCT [VGF95] the binding was “binds”.
For GGVKQVASWLGT [VGF99], the binding was “binds”.
GAVTEAAWWLAI [VGF100] was tested, and the binding was “binds”.
GGVEAAAWWVGI [VGF101] was tested, and the binding was “binds”.
For GCVKQVPWGLCI [VGF104], the binding was “binds”.
For VEPNCDIHVMWEWECFERL [VGF107], the binding was “binds”.
With WCAGFPPTSAGY [VGF131] the binding was “binds”.
With TAWEAAASWLCA [VGF140] the binding was “binds”.
TCGKAAAAWLAA [VGF146] was tested, and the binding was “binds”.
With TGWKPTAWGVGD [VGF152] the binding was “binds”.
ASWKPAPWWLCA [VGF156] was tested, and the binding was “binds”.
TSGKATPGGACD [VGF162] was tested, and the binding was “binds”.

Each binder was assayed against IL17a (UniProt Q16552) (assay: peptide selection, Example 48).
With LSLWCWHDQAEFCVESN [ILA1] the binding was “binds”.
In the case of SKYDCFWEHEWLYCAPRM [ILA2], the binding is reported as “binds”.
In the case of FDLYCWVWPDMMECTAGT [ILA3], the binding is reported as “binds”.
For GTWDCWVEGEWVYCTPWS [ILA4], the binding was “binds”.
STEGCHQDWYDLCAFLA [ILA5] was tested, and the binding was “binds”.
With LSLWCWMFPEHNACLSPV [ILA6] the binding was “binds”.
In the case of ESLWCWMFPNEQTCLVQH [ILA7], the binding is reported as “binds”.
In the case of VSYLCDEYQGLLYCMVQR [ILA8], the binding is reported as “binds”.
LDLWCWFPNDTKCMRLT [ILA9] was tested, and the binding was “binds”.
With LGLWCFVYPDDQMCIRSW [ILA10] the binding was “binds”.
In the case of MGELCEFFGFHDCPMQI [ILA11], the binding is reported as “binds”.
For SETLCWDGWDIWICQDPQ [ILA12], the binding was “binds”.
With DWATCWEFNELWYCIPYN [ILA13] the binding was “binds”.
With IDPGCWLTPWSFQCPGYM [ILA16] the binding was “binds”.
